Experimental data reported in US6403602B1 (priority 1997, dated 2002).

Tests used:
[1] = tested on: electrically stimulated mouse vas deferens; assay: tissue or blood; assay type: cell-based; settings: read-out: Mouse Vas Deferens IC50 (nM)
[2] = tested on: electrically stimulated guinea pig ileum; assay: tissue or blood; assay type: cell-based; settings: Cavia porcellus, read-out: Guinea Pig Ileum IC50 (nM)

CN1CC[C@]23c4c5ccc(O)c4O[C@H]2[C@@H](O)C=C[C@H]3[C@H]1C5 [Morphine, morphine]
IC50 [1]: 2130 nM | IC50 [2]: 24.8 nM
